Experimental findings from the supplement of paper PMC12889115 are described below.

The assay has as its system Salmonella enterica serovar Typhimurium SL1344. The assay can be described thus: bacterial growth OD600 after 18 h with compound and polymyxin B; higher = more bacterial growth (less inhibition). To be noted: 50 µM, Mueller-Hinton broth.

Each structure is given as a SMILES string. The list shows a part of the results. Values are raw readings; no control value is given beside them.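 Primary screen: polymyxin B was added at a level permeabilizing Salmonella outer membranes while sparing inner membranes. DMSO wells, both with and without polymyxin B, established maximum growth. Plate-to-plate variation meant each plate was ranked on its own, and the lowest-OD600 compounds were selected as hits.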

As for `COc1ccccc1-c1ccnc(-n2ncc(C(=O)NCC(C)(C)CN(C)C)c2C)n1`, the “bacterial growth OD600” value (polymyxin B 0.75 µg/mL) was determined as 0.793.
Take `O=C1CCC(CCC(=O)N2CCN(c3ccccc3O)CC2)(Cc2ccc(-c3ccccc3)cc2)N1` (stereo unspecified): the “bacterial growth OD600” value (polymyxin B 0.75 µg/mL) amounted to 0.012.
For the compound `O=C(NC1CCOC1)c1cc(COc2cccc(C(F)(F)F)c2)[nH]n1` (stereo unspecified), under “polymyxin B 0.75 µg/mL”, the “bacterial growth OD600” value came out at 0.713.
On the same count and under the same terms, the result for `CCC(=O)N[C@@H]1c2ccccc2C2(CCN(C(=O)c3ccc(C)c(C)c3)CC2)[C@H]1OCc1cccnc1` reads 0.791.
Regarding `O=C(c1ccc2ncccc2c1)N1CCCC(Nc2ccc(F)cc2)C1` (stereo unspecified), the “bacterial growth OD600” value (polymyxin B 1 µg/mL) was 1.29.
In the case of `COc1ccccc1-c1cn2c(C(=O)N(C)Cc3cnn(C)c3)csc2n1`, under “polymyxin B 0.75 µg/mL”, the “bacterial growth OD600” value turned out to be 0.797.
In the case of `COc1ccc(C(=O)N2CCCC2)c(OC2CCN(CCCc3ccccc3)CC2)c1`, the “bacterial growth OD600” value (polymyxin B 1 µg/mL) turned out to be 1.17.
Consider `Cc1ccc(Oc2ncccc2CNC2CCC2)c(F)c1F`, for which the “bacterial growth OD600” value (polymyxin B 1 µg/mL) stood at 0.86.
With `CCn1cnnc1CN(C)c1ccc(-c2nc(C(C)C)no2)cn1`, where the note is “polymyxin B 0.75 µg/mL”, the “bacterial growth OD600” value came out at 0.778.
As to `CCCN1CCC(Nc2nc3nonc3nc2NCCCOC)CC1`, for the setting “polymyxin B 0.75 µg/mL”, the “bacterial growth OD600” value stood at 0.792.
Take `COc1ccc(CCN2CCC(CN(C)Cc3cnc(SC)nc3)CC2)cc1`: the “bacterial growth OD600” value (polymyxin B 1 µg/mL) was found to be 1.2.
Consider `COc1cccc(-c2nn(-c3ccccc3)cc2CN2CCCC(OC)C2)c1` (stereo unspecified), for which, under “polymyxin B 0.75 µg/mL”, the “bacterial growth OD600” value is 0.664.
As for `CCOC(=O)C1(Cc2ccccc2F)CCCN(C(=O)c2cccc3nccnc23)C1` (stereo unspecified), the “bacterial growth OD600” value (polymyxin B 1 µg/mL) was 0.859.
As for `COc1cccc(Cc2cc(C(=O)NCc3cc(OC)ccc3OC)on2)c1`, the “bacterial growth OD600” value (polymyxin B 0.75 µg/mL) worked out at 0.733.
In the case of `c1ccc2c(c1)CC(NCc1cccn1-c1nccs1)CO2` (stereo unspecified), the “bacterial growth OD600” value (polymyxin B 1 µg/mL) turned out to be 1.03.
For `COC(=O)c1ccc(CNC(C)c2cnn(-c3ccc(OC)cc3)c2C)cc1` (stereo unspecified), the “bacterial growth OD600” value (polymyxin B 1 µg/mL) was determined as 1.05.
For `Cc1oc(-c2ccccc2NC(=O)c2ccccc2)nc1CNC(=O)c1cc(-c2ccccc2)n[nH]1`, where the note is “polymyxin B 0.75 µg/mL”, the “bacterial growth OD600” value amounted to 0.791.
Regarding `CCOC(=O)C1(Cc2ccccc2)CCCN(Cc2c(C)n(C)n(-c3ccccc3)c2=O)C1` (stereo unspecified), the “bacterial growth OD600” value (polymyxin B 1 µg/mL) stood at 0.82.
For the compound `CCn1ccnc1CN1CCC(Oc2cc(C(=O)NC3CC3)ccc2OC)CC1`, the “bacterial growth OD600” value (polymyxin B 1 µg/mL) turned out to be 1.26.
Turning to `O=C(NCCc1cscn1)C1(N2CCCCC2)Cc2ccccc2C1`, where the note is “polymyxin B 0.75 µg/mL”, the “bacterial growth OD600” value amounted to 0.582.
Take `C[C@@H]1CN(Cc2ccc3c(c2)CN(Cc2nc4ccccc4n2C)CCO3)C[C@H](C)O1`: under “polymyxin B 0.75 µg/mL”, the “bacterial growth OD600” value stood at 0.816.
